For 2 molecules, binding results are on record in publication PMC6336889.

These are yes or no findings as the source states them, for the method shown. In cells and extracts the contact can be indirect. Some results given as binding are weak or reduced against the parent protein; the word gives no strength. For part of these data: Sequences can lack the tags named with a protein.

The target in one assay is Myc-HRAS (UniProt P01112). The assay can be described thus: co-IP; HEK293 cells co-transfected with the tagged candidate and Myc-HRAS; whole cell lysates (RIPA buffer) immunoprecipitated with anti-Myc antibody; immunoblot.
The target in a further assay is GST-NRAS (UniProt P01111). The experiment in a line: pull-down; HEK293 whole cell lysates incubated with purified soluble recombinant GST-H, -K or -NRAS; immunoblot; only the target purified. (A western blot detects proteins with antibodies after separation by electrophoresis.)
In another assay the target is GST-KRAS (UniProt P01116). The assay is described as above.

B1: HA-Rspo3 (protein, UniProt Q9BXY4 22-272)
chain: QNASRGRRQRRMHPNVSQGCQGGCATCSDYNGCLSCKPRLFFALERIGMKQIGVCLSSCPSGYYGTRYPDINKCTKCKADCDTCFNKNFCTKCKSGFYLHLGKCLDNCPEGLEANNHTMECVSIVHCEVSEWNPWSPCTKKGKTCGFKRGTETRVREIIQHPSAKGNLCPPTNETRKCTVQRKKCQKGERGKKGRERKRKKPNKGESKEAIPDSKSLESSKEIPEQRENKQQQKKRKVQDKQKSVSVSTVH
Consider B1, for which, in the assay with Myc-HRAS, the binding entry is “binds”.

B2: endogenous WDR76 (HEK293 cells) (protein, UniProt Q9H967 1-626)
chain: MSRSGAAAEKADSRQRPQMKVNEYKENQNIAYVSLRPAQTTVLIKTAKVYLAPFSLSNYQLDQLMCPKSLSEKNSNNEVACKKTKIKKTCRRIIPPKMKNTSSKAESTLQNSSSAVHTESNKLQPKRTADAMNLSVDVESSQDGDSDEDTTPSLDFSGLSPYERKRLKNISENADFFASLQLSESAARLREMIEKRQPPKSKRKKPKRENGIGCRRSMRLLKVDPSGVSLPAAPTPPTLVADETPLLPPGPLEMTSENQEDNNERFKGFLHTWAGMSKPSSKNTEKGLSSIKSYKANLNGMVISEDTVYKVTTGPIFSMALHPSETRTLVAVGAKFGQVGLCDLTQQPKEDGVYVFHPHSQPVSCLYFSPANPAHILSLSYDGTLRCGDFSRAIFEEVYRNERSSFSSFDFLAEDASTLIVGHWDGNMSLVDRRTPGTSYEKLTSSSMGKIRTVHVHPVHRQYFITAGLRDTHIYDARRLNSRRSQPLISLTEHTKSIASAYFSPLTGNRVVTTCADCNLRIFDSSCISSKIPLLTTIRHNTFTGRWLTRFQAMWDPKQEDCVIVGSMAHPRRVEIFHETGKRVHSFGGEYLVSVCSINAMHPTRYILAGGNSSGKIHVFMNEKSC
As to B2, the binding result in the assay with GST-NRAS and with GST-KRAS was “binds” in each case.
